# According to the supplement of paper PMC8728848:
# This is one part of the list.
# Legend:
# Assay in all cases: glycan array binding signal (z-score within array); higher = stronger binding
# Conditions in all cases: glycan notation: IUPAC condensed, linker removed
# [1] = biological target: Fuc(a1-2)[GalNAc(a1-3)]Gal(b1-3)GlcNAc(b1-3)GalNAc
# Method in brief: (§1)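 Arrays were curated from the Consortium for Functional Glycomics database, 3228 in total, and kept only where the protein sequence was available. Binding is expressed as a within-array Z-score. This score was averaged across arrays of the same protein sequence at different concentrations or buffers and across linkers, and negative values can be read as non-binding.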
# [2] = biological target: Fuc(a1-2)[GalNAc(a1-3)]Gal(b1-3)GlcNAc(b1-6)GalNAc
# Method in brief: as §1
# [3] = biological target: Fuc(a1-2)[GalNAc(a1-3)]Gal(b1-4)Glc
# Method in brief: as §1
# [4] = biological target: Fuc(a1-2)[GalNAc(a1-3)]Gal(b1-4)GlcNAc
# Method in brief: as §1
# [5] = biological target: Fuc(a1-2)[GalNAc(a1-3)]Gal(b1-4)GlcNAc(b1-2)Man
# Method in brief: as §1
# [6] = biological target: Fuc(a1-2)[GalNAc(a1-3)]Gal(b1-4)GlcNAc(b1-2)Man(a1-3)[Fuc(a1-2)[GalNAc(a1-3)]Gal(b1-4)GlcNAc(b1-2)Man(a1-6)]Man(b1-4)GlcNAc(b1-4)GlcNAc
# Method in brief: as §1
# [7] = biological target: Fuc(a1-2)[GalNAc(a1-3)]Gal(b1-4)GlcNAc(b1-2)Man(a1-3)[Fuc(a1-2)[GalNAc(a1-3)]Gal(b1-4)GlcNAc(b1-2)Man(a1-6)]Man(b1-4)GlcNAc(b1-4)[Fuc(a1-6)]GlcNAc
# Method in brief: as §1
# [8] = biological target: Fuc(a1-2)[GalNAc(a1-3)]Gal(b1-4)GlcNAc(b1-3)Gal(b1-4)GlcNAc
# Method in brief: as §1
# [9] = biological target: Fuc(a1-2)[GalNAc(a1-3)]Gal(b1-4)GlcNAc(b1-3)Gal(b1-4)GlcNAc(b1-3)Gal(b1-4)GlcNAc
# Method in brief: as §1
# [10] = biological target: Fuc(a1-2)[GalNAc(a1-3)]Gal(b1-4)GlcNAc(b1-3)GalNAc
# Method in brief: as §1
# [11] = biological target: Fuc(a1-2)[GalNAc(a1-3)]Gal(b1-4)GlcNAc(b1-3)[Fuc(a1-2)[GalNAc(a1-3)]Gal(b1-4)GlcNAc(b1-6)]GalNAc
# Method in brief: as §1
# [12] = biological target: Fuc(a1-2)[GalNAc(a1-3)]Gal(b1-4)GlcNAc(b1-6)GalNAc
# Method in brief: as §1
# [13] = biological target: Fuc(a1-2)[GalNAc(a1-3)]Gal(b1-4)[Fuc(a1-3)]GlcNAc
# Method in brief: as §1
# [14] = biological target: Fuc(a1-2)[GalNAc(a1-3)]Gal(b1-4)[Fuc(a1-3)]GlcNAc(b1-3)GalNAc
# Method in brief: as §1
# [15] = biological target: Fuc(a1-2)[GalNAc(a1-4)]Gal(b1-4)GlcNAc
# Method in brief: as §1
# [16] = biological target: Fuc(a1-2)[GalNAc(b1-3)]Gal
# Method in brief: as §1
# [17] = biological target: Fuc(a1-3)GlcNAc
# Method in brief: as §1
# [18] = biological target: Fuc(a1-3)[Gal(b1-4)]Glc6S
# Method in brief: as §1
# [19] = biological target: Fuc(a1-3)[Gal(b1-4)]GlcNAc
# Method in brief: as §1
# [20] = biological target: Fuc(a1-3)[Gal(b1-4)]GlcNAc(b1-2)Man
# Method in brief: as §1
# [21] = biological target: Fuc(a1-3)[Gal(b1-4)]GlcNAc(b1-2)Man(a1-3)[Fuc(a1-3)[Gal(b1-4)]GlcNAc(b1-2)Man(a1-6)]Man(b1-4)GlcNAc(b1-4)GlcNAc
# Method in brief: as §1
# [22] = biological target: Fuc(a1-3)[Gal(b1-4)]GlcNAc(b1-2)Man(a1-3)[Fuc(a1-3)[Gal(b1-4)]GlcNAc(b1-2)Man(a1-6)]Man(b1-4)GlcNAc(b1-4)[Fuc(a1-6)]GlcNAc
# Method in brief: as §1
# [23] = biological target: Fuc(a1-3)[Gal(b1-4)]GlcNAc(b1-3)Gal(b1-3)[Fuc(a1-4)]GlcNAc
# Method in brief: as §1
# [24] = biological target: Fuc(a1-3)[Gal(b1-4)]GlcNAc(b1-3)Gal(b1-4)[Fuc(a1-3)]GlcNAc
# Method in brief: as §1
# [25] = biological target: Fuc(a1-3)[Gal(b1-4)]GlcNAc(b1-3)Gal(b1-4)[Fuc(a1-3)]GlcNAc(b1-3)Gal(b1-4)[Fuc(a1-3)]GlcNAc
# Method in brief: as §1
# [26] = biological target: Fuc(a1-3)[Gal(b1-4)]GlcNAc(b1-3)GalNAc
# Method in brief: as §1
# [27] = biological target: Fuc(a1-3)[Gal(b1-4)]GlcNAc(b1-6)GalNAc
# Method in brief: as §1
# [28] = biological target: Fuc(a1-3)[Gal(b1-4)]GlcNAc(b1-6)[Gal(b1-3)GlcNAc(b1-3)]Gal(b1-4)Glc
# Method in brief: as §1
# [29] = biological target: Fuc(a1-3)[Gal(b1-4)]GlcNAc6S
# Method in brief: as §1
# [30] = biological target: Fuc(a1-3)[Gal3S(b1-4)]Glc
# Method in brief: as §1
# [31] = biological target: Fuc(a1-3)[Gal3S(b1-4)]GlcNAc
# Method in brief: as §1
# [32] = biological target: Fuc(a1-3)[Gal3S(b1-4)]GlcNAc6S
# Method in brief: as §1
# [33] = biological target: Fuc(a1-3)[GalNAc(b1-4)]GlcNAc
# Method in brief: as §1
# [34] = biological target: Fuc(a1-3)[GalNAc(b1-4)]GlcNAc6S
# Method in brief: as §1
# [35] = biological target: Fuc(a1-4)GlcNAc
# Method in brief: as §1
# [36] = biological target: Fuc(b1-3)GlcNAc
# Method in brief: as §1
# [37] = biological target: Gal(a1-2)Gal
# Method in brief: as §1
binder,measurement,setting,value
Drgal1 (Danio rerio) (protein) MAGVLIQNMSFKVGQTLTITGVPKPDSTNFAINIGHSPEDIALHMNPRFDAHGDQCTIVCNSFQSGSWCEEHRDDNFPFIQDKEFQIKITFTNEEFLVTLPDGSEIHFPNRQGSEKYKYMYFEGEVRIQGVEIK,glycan array binding signal (z-score),[1],-0.069
same,glycan array binding signal (z-score),[2],-0.533
same,glycan array binding signal (z-score),[3],-0.454
same,glycan array binding signal (z-score),[4],-0.6
same,glycan array binding signal (z-score),[5],-1.11
same,glycan array binding signal (z-score),[6],0.154
same,glycan array binding signal (z-score),[7],0.279
same,glycan array binding signal (z-score),[8],-0.493
same,glycan array binding signal (z-score),[9],0.101
same,glycan array binding signal (z-score),[10],-0.871
same,glycan array binding signal (z-score),[11],-0.241
same,glycan array binding signal (z-score),[12],-0.577
same,glycan array binding signal (z-score),[13],0.041
same,glycan array binding signal (z-score),[14],2.22
same,glycan array binding signal (z-score),[15],0.017
same,glycan array binding signal (z-score),[16],-0.233
same,glycan array binding signal (z-score),[17],-0.318
same,glycan array binding signal (z-score),[18],-0.694
same,glycan array binding signal (z-score),[19],-0.316
same,glycan array binding signal (z-score),[20],0.041
same,glycan array binding signal (z-score),[21],0.171
same,glycan array binding signal (z-score),[22],0.227
same,glycan array binding signal (z-score),[23],-0.505
same,glycan array binding signal (z-score),[24],-0.28
same,glycan array binding signal (z-score),[25],-0.386
same,glycan array binding signal (z-score),[26],-0.392
same,glycan array binding signal (z-score),[27],0.267
same,glycan array binding signal (z-score),[28],0.046
same,glycan array binding signal (z-score),[29],2.04
same,glycan array binding signal (z-score),[30],-0.077
same,glycan array binding signal (z-score),[31],-0.047
same,glycan array binding signal (z-score),[32],-0.451
same,glycan array binding signal (z-score),[33],1.26
same,glycan array binding signal (z-score),[34],-0.484
same,glycan array binding signal (z-score),[35],0.41
same,glycan array binding signal (z-score),[36],-0.45
same,glycan array binding signal (z-score),[37],-0.396

# Looked up one by one from above (2):
binder,measurement,setting,value
Drgal1 (Danio rerio) (protein) MAGVLIQNMSFKVGQTLTITGVPKPDSTNFAINIGHSPEDIALHMNPRFDAHGDQCTIVCNSFQSGSWCEEHRDDNFPFIQDKEFQIKITFTNEEFLVTLPDGSEIHFPNRQGSEKYKYMYFEGEVRIQGVEIK,glycan array binding signal (z-score),[19],-0.316
same,glycan array binding signal (z-score),[6],0.154
